At least one compound was matched to its structure with a doubt left.
Conditions: levonorgestrel 75 mcg/day added to clomiphene 100 mg/day after serum estrogen reached 500 pg/ml, endometriosis
Protocol: 1. Clomiphene is used alone at 100 mg/day for the treatment of endometriosis. […] Levonorgestrel at 75 mcg/day is then also administered.
2. Raloxifene at 500 mg/day and medroxprogesterone acetate at 12 mg/day were administrated to treat leiomyoma.
5. Clomiphene is used alone at 100 mg/day for the treatment of endometriosis. […] Danazol at 100 to 800 mg/day is then also administered.

SMILES: C#C[C@]1(O)CC[C@H]2[C@@H]3CCC4=CC(=O)CC[C@@H]4[C@H]3CC[C@@]21CC [Levonorgestrel, levonorgestrel]
- serum estrogen: retreated to physiological value

Source: patent US7256185B1, “Control of selective estrogen receptor modulators” (Eastern Virginia Medical School, priority 1997, dated 2007)
